Source: patent US20100061989A1
These are yes or no findings as the source states them, for the method shown. Binding can be weak; no strength is given. For part of these data: Binding seen in cells or lysates may run through a third protein. For part of these data: Where a sequence is shown, tags or fusion partners need not be part of it.

What was measured:
[1] = target: T1, NF-E4 (endogenous, K562 cells) (human) (UniProt Q86UQ8); assay: co-immunoprecipitation of endogenous proteins from K562 cell extract with PRMT-5 antibody, western blot
T1 sequence (looked up): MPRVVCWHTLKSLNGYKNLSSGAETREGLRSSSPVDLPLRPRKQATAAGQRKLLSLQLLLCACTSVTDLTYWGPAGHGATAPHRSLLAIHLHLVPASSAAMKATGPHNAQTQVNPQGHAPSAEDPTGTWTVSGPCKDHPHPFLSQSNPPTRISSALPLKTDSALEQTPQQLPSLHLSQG

[2] = target: T2, GST fusion protein containing amino acids 1-179 (full length) of NF-E4 (UniProt Q86UQ8); assay: GST pull-down: 35S-labeled PRMT-5 on GST-NF-E4 bound to glutathione beads, autoradiography
T2 sequence (looked up): T1 sequence (looked up)

[3] = target: T1, NF-E4 (endogenous, K562 cells) (human); assay: PRMT-5 immunoprecipitates from untransfected K562 cell extract, western blot with NF-E4 or PRMT-5 antibodies

binding [1]: binds
binding [2]: binds
binding [3]: binds
Substance: protein methyltransferase PRMT-5 (human, untagged) (enzyme)
